# Test results as given in the supplement of paper PMC12067093, “Discovery and optimisation of a covalent ligand for TRIM25 and its application to targeted protein ubiquitination” (Chemical Science, 2025).
# Protein sequences, listed by entry. Tags and fused reporters are not part of them. Lines headed by an entry give the natural chain unless they say otherwise; changes in a name come on top.
# UniProt P31948, whole entry, looked up: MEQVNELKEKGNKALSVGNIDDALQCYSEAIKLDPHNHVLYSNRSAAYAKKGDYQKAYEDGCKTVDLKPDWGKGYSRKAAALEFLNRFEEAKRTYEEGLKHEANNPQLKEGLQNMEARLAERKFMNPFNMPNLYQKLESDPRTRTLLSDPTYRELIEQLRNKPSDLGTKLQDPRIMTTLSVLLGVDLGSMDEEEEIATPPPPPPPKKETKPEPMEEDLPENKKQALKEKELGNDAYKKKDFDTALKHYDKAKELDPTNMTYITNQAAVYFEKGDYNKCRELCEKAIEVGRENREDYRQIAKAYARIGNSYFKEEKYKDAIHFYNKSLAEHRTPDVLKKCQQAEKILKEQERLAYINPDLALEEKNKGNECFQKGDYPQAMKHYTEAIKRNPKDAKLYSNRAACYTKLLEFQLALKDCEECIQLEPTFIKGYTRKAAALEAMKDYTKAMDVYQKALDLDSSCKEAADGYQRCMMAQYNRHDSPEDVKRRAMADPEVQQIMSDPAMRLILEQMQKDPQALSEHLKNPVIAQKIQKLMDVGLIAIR
# UniProt P61764, whole entry: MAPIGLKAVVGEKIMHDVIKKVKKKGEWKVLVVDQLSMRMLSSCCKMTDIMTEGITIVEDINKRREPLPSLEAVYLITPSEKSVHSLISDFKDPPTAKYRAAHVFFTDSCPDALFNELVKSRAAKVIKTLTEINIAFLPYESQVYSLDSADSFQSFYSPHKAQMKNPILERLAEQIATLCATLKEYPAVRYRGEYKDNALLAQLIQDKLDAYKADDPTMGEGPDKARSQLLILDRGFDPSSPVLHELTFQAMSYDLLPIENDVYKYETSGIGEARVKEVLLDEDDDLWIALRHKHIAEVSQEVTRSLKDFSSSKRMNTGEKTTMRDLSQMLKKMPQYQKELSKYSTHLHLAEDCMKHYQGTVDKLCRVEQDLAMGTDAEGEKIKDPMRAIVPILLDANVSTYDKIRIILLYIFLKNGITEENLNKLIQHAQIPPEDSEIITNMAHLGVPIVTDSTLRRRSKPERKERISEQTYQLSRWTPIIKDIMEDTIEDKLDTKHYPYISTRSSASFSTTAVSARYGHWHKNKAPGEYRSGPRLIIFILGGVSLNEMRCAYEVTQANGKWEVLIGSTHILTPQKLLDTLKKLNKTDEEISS
# UniProt P42224: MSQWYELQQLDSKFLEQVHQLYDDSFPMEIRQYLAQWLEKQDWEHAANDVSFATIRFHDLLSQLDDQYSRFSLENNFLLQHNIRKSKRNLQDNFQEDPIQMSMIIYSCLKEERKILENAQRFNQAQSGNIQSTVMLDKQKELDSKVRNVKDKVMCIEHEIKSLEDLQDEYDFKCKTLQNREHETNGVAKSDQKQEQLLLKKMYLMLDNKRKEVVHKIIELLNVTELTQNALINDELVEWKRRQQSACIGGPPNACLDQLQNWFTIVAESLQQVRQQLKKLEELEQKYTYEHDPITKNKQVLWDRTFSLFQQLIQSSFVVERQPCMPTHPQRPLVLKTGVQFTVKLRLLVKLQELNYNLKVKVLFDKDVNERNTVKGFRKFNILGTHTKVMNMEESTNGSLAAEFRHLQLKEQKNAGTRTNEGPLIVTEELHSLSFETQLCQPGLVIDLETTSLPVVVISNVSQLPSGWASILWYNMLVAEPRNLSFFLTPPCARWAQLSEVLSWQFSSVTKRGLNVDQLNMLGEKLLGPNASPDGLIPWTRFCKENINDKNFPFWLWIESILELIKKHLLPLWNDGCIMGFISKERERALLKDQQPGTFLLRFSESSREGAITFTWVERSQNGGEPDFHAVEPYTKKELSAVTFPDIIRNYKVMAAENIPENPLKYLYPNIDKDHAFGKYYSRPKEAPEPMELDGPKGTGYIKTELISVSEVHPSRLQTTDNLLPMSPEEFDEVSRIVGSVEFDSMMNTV
# This is one part of the list.
# Compound: Cc1cc(ccc1-c1ccccc1)C(=O)N1CCCN(CC1)C(=O)CCl [compound 10]
# Experiment: probe-labelled cysteine peptide fold change vs DMSO (competition) (log2 fold change); higher = less target engagement (more negative = stronger competition)
# Conditions: THP-1, incubation time: 4 h
# 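Also: competitive profiling in live THP-1 cells: cysteine peptides tagged with an iodoacetamide desthiobiotin (IA-DTB) probe, intensity after compound treatment relative to DMSO-treated cells.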
Target,probe-labelled cysteine peptide fold change (10 µM),probe-labelled cysteine peptide fold change (50 µM)
STIP1_P31948_461_ALDLDSSCK (UniProt P31948),0.279,-0.0725
STXBP1_P61764_110_AAHVFFTDSCPDALFNELVK (UniProt P61764),0.24,0.527
SYK_P43405_101_THASPADLCHYHSQESDGLVCLLK (UniProt P43405),0.197,-0.0862
STAT1_P42224_492_NLSFFLTPPCAR (UniProt P42224),0.119,-0.594
STRN4_Q9NRL3_17_AAAAVAAAASSCRPLGSGAGPGPTGAAPVSAPAPGPGPAGK (UniProt Q9NRL3),-0.14,-0.496
